Laboratory results from article PMC4595766.
These are yes or no findings as the source states them, for the method shown. In cells and extracts the contact can be indirect. Some binding calls cover weakened binding; strength is not graded here. Where a sequence is shown, tags or fusion partners need not be part of it. One block for each binder: values may come before it.

What was measured:
Assay in all cases: co-IP; extract of exponentially growing fission yeast cells (sgf73+ background) in Buffer 1 (1 M Tris-HCl pH 8.0, 167 mM NaCl, 1.2 mM EDTA, 1% TritonX-100, 0.1% Na-deoxycholate) with protease inhibitors; anti-FLAG M2 magnetic beads, or anti-HA antibody then protein A/G agarose, 6 h; Western blot; Ago1-Tas3 also tested in sgf73Δ cells (disrupted to a much lesser extent)
[1] = biological target: T1, Chp1-3FLAG (fission yeast) (UniProt Q10103)
T1 sequence: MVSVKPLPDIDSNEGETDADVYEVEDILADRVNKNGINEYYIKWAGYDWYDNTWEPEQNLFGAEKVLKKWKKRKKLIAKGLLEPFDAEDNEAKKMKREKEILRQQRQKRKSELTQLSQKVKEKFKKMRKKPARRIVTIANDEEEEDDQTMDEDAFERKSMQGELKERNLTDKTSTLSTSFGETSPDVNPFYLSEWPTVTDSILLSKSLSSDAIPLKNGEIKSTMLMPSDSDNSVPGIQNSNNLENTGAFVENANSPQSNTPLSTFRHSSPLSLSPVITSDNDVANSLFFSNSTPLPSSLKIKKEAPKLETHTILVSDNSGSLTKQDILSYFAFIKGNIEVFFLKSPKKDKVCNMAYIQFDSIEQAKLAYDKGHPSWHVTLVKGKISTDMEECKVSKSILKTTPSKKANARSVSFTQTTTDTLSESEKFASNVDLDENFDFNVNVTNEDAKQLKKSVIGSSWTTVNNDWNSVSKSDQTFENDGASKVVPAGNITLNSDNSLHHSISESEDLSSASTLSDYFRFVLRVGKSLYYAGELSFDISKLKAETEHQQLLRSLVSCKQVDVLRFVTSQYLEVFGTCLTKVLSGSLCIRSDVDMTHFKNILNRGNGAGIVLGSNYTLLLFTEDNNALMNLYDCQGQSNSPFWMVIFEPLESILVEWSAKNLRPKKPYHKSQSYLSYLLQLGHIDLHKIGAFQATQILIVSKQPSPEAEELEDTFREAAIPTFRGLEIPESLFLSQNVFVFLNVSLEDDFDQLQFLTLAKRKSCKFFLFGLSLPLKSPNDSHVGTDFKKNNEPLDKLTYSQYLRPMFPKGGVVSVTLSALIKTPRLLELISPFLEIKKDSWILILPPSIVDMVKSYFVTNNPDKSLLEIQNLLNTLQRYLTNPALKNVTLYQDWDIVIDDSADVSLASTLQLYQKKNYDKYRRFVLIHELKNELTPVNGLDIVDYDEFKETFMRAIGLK

[2] = biological target: T2, Sgf73 with a C-terminal triple HA tag (Sgf73-3HA) (fission yeast) (UniProt O94397)
T2 sequence: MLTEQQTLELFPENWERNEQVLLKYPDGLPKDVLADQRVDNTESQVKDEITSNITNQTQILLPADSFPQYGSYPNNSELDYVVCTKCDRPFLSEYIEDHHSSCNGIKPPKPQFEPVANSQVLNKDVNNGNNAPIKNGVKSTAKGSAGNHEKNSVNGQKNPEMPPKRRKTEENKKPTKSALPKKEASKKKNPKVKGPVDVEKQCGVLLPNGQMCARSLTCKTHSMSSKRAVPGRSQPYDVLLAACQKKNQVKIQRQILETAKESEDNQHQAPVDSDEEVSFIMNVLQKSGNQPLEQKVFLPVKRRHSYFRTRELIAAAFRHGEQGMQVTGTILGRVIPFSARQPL

[3] = biological target: T3, Tas3-3FLAG (fission yeast) (UniProt O94687)
T3 sequence: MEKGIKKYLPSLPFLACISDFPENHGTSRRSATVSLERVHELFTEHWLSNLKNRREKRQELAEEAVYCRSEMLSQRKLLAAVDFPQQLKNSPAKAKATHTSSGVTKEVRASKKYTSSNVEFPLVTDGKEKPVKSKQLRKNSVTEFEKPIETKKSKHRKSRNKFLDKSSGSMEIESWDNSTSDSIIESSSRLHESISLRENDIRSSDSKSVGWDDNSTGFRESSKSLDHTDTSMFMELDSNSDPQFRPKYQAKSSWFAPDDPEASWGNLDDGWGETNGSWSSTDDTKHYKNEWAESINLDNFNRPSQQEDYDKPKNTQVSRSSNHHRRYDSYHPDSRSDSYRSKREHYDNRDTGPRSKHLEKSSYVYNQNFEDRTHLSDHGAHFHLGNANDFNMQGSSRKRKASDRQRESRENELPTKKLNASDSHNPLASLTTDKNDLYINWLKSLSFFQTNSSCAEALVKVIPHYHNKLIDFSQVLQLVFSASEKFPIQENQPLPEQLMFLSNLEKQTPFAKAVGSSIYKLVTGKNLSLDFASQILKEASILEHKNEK

binding [1]: binds | binding [2]: binds | binding [3]: binds
B1: Ago1 (Argonaute) (protein, UniProt O74957 1-834)
chain: MSYKPSSEIALRPGYGGLGKQITLKANFFQIISLPNETINQYHVIVGDGSRVPRKQSQLIWNSKEVKQYFGSSWMNSVYDGRSMCWSKGDIADGTIKVNIGSESHPREIEFSIQKSSKINLHTLSQFVNSKYSSDPQVLSSIMFLDLLLKKKPSETLFGFMHSFFTGENGVSLGGGVEAWKGFYQSIRPNQGFMSVNVDISSSAFWRNDSLLQILMEYTDCSNVRDLTRFDLKRLSRKFRFLKVTCQHRNNVGTDLANRVYSIEGFSSKSASDSFFVRRLNGEEQKISVAEYFLENHNVRLQYPNLPCILVKNGAMLPIEFCFVVKGQRYTAKLNSDQTANMIRFAVQRPFERVQQIDDFVHQMDWDTDPYLTQYGMKIQKKMLEVPARVLETPSIRYGGDCIERPVSGRWNLRGKRFLDPPRAPIRSWAVMCFTSTRRLPMRGIENFLQTYVQTLTSLGINFVMKKPPVLYADIRGSVEELCITLYKKAEQVGNAPPDYLFFILDKNSPEPYGSIKRVCNTMLGVPSQCAISKHILQSKPQYCANLGMKINVKVGGINCSLIPKSNPLGNVPTLILGGDVYHPGVGATGVSIASIVASVDLNGCKYTAVSRSQPRHQEVIEGMKDIVVYLLQGFRAMTKQQPQRIIYFRDGTSEGQFLSVINDELSQIKEACHSLSPKYNPKILVCTTQKRHHARFFIKNKSDGDRNGNPLPGTIIEKHVTHPYQYDFYLISHPSLQGVSVPVHYTVLHDEIQMPPDQFQTLCYNLCYVYARATSAVSLVPPVYYAHLVSNLARYQDVTADDTFVETSEASMDQEVKPLLALSSKLKTKMWYM

binding [3]: binds
B2: Chp1 (protein, UniProt Q10103 1-960)
chain: T1 sequence

binding [1]: binds
B3: Sgf73 with a C-terminal triple HA tag (Sgf73-3HA) (protein, UniProt O94397 1-344)
chain: T2 sequence
